Publication PMC7819943, “Rice protein-binding microarrays: a tool to detect cis-acting elements near promoter regions in rice”
The other results are listed elsewhere or left out.

target: T1, OsSMF1 (Oryza sativa, UniProt Q6ZLB0 1-436); assay: protein-binding microarray (RPBM); PBS, 2% BSA, 51.3 ng/ul salmon testes DNA, 50 uM zinc acetate, 200 nM TF, 25 C, 1 h; high values mean tight binding; conditions: protein: recombinant; tags: N-terminal polyhistidine and DsRed monomer fusion (pET32a); chain copies: 2; label: CyDye5-dUTP incorporated in the synthesized complementary strand; 3' TTTTT single-stranded linker to array surface; dsDNA, one strand shown
T1 sequence: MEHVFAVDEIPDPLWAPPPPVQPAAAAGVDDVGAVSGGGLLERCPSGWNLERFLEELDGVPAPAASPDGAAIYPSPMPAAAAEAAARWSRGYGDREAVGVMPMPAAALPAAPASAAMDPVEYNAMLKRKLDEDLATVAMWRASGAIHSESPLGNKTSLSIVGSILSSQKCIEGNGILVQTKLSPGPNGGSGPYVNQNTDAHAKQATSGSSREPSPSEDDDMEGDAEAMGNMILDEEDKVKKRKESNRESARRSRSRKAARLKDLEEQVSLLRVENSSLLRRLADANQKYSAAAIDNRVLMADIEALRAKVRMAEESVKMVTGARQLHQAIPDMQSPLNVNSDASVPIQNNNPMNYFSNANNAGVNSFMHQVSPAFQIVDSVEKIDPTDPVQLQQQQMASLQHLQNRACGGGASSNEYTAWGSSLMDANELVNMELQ
Method in brief: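 Using Ni–NTA, transcription factors fused N-terminally to polyhistidine and DsRed were purified after expression in E. coli BL21-CodonPlus. These were incubated at 200 nM with a blocked, double-stranded custom Agilent array for 1 h at 25 °C in a buffer containing 50 µM zinc acetate, and the array was washed. The binding signal is per-feature fluorescence intensity (arbitrary units) on an Axon 4000B scanner.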

Sequence	binding signal
AAGTCCGATTTCTGTTCGTTTTAGTAGACAGTATATATCTCGGAGTCACCTAGTGCAG	3140 fluorescence intensity (a.u.)
ATGGCGTGCCATTCCAGCGGTCCGGCCGCCGCGTCAGCCACGGAGTCACCTAGTGCAG	9740 fluorescence intensity (a.u.)
TATATATCAAATCCTGACCATGTGCGTATGTTACCCTCAACGGAGTCACCTAGTGCAG	3920 fluorescence intensity (a.u.)
AGGAGGAGATCAAACCTTATCCGCATCATCCACCTCCTTGCGGAGTCACCTAGTGCAG	5330 fluorescence intensity (a.u.)
GACACCCTATGTAATAACCGATGTGACACGTCAAAACTTTCGGAGTCACCTAGTGCAG	6510 fluorescence intensity (a.u.)
TTCGCTCGTGTCATCCCCGAGCTCAGCCGCCGTCGCCAGTCGGAGTCACCTAGTGCAG	27300 fluorescence intensity (a.u.)
GTGCGGGCGGGCGCGGGCGCGACGCGCGTGGCGCGGGTGGCGGAGTCACCTAGTGCAG	3570 fluorescence intensity (a.u.)
ATGGAATCGCCGCCGCGGTCGTGCTCAGATCACGCCGCCGCGGAGTCACCTAGTGCAG	4080 fluorescence intensity (a.u.)
ACAGATACTGCGTAGTAGTACTAGGTTAGACCAGTGGTTTCGGAGTCACCTAGTGCAG	4260 fluorescence intensity (a.u.)
ATTGTCTTTCCTGTACAACATGTCACCAGCATAAATGGTCCGGAGTCACCTAGTGCAG	4780 fluorescence intensity (a.u.)
ACCTGTTCGATGTGCTTGACCGTTTCAACGCCTAGGCCCACGGAGTCACCTAGTGCAG	33800 fluorescence intensity (a.u.)
TGATTCAGAAGCTTTCCTTGCCAATGTGTCAGCCTTGTCGCGGAGTCACCTAGTGCAG	6780 fluorescence intensity (a.u.)
AGAGGGGCAGAGAGAGAGAGTGAGTGAGAAAGAGATCAAGCGGAGTCACCTAGTGCAG	56600 fluorescence intensity (a.u.)
ATGCCGATGTCTTCTCGTCATTGGATGGCTATGCCCATGCCGGAGTCACCTAGTGCAG	3730 fluorescence intensity (a.u.)
GAGGTGCCTGCTCGTCCTCGATGACGTCTGGGATGACAACCGGAGTCACCTAGTGCAG	4030 fluorescence intensity (a.u.)
CACACAACGAAGAGCCAGAGACACGTGTCGACATCTGAGACGGAGTCACCTAGTGCAG	9510 fluorescence intensity (a.u.)
ATAACTAAAAGTTGTTATATTTTGGAACGGAGGCAGTACGCGGAGTCACCTAGTGCAG	7850 fluorescence intensity (a.u.)
CTCCAATGAACGAACGCAGCATTAGAATCCTTTGACACGGCGGAGTCACCTAGTGCAG	3690 fluorescence intensity (a.u.)
GCGTGACGGATTCGCCTGCGTCATCAACACAAAACATATGCGGAGTCACCTAGTGCAG	6750 fluorescence intensity (a.u.)
CAAATATTTTATCCAAAATAAACCGTTATGAAATCCGATTCGGAGTCACCTAGTGCAG	24400 fluorescence intensity (a.u.)
ACTCTGCCCAAAATCTCATCCTGATGATGCACTACCACACCGGAGTCACCTAGTGCAG	3830 fluorescence intensity (a.u.)

Sequence	binding signal
GCAGCAGCCGCGTCATCTTGACGTCGGCGCGGCAGCGAGCCGGAGTCACCTAGTGCAG	9260 fluorescence intensity (a.u.)
CCATCACCAACGTGCCCATCCGAACAAGCGTTGGCGGCAGCGGAGTCACCTAGTGCAG	24900 fluorescence intensity (a.u.)
CAACACGCTCGATATCATCTAGTTAAACTAACCTAGTGTGCGGAGTCACCTAGTGCAG	42700 fluorescence intensity (a.u.)
ACCACCGAATCCTACCCATACACGTGTCCCCAAAATCAATCGGAGTCACCTAGTGCAG	6710 fluorescence intensity (a.u.)
GGTCACATTCACATCGCACCCAAGTTGCGGACGTTTCAGCCGGAGTCACCTAGTGCAG	33900 fluorescence intensity (a.u.)
TGAATCCATCCACTAATCCATCAAATTAAATAAGTTCTTGCGGAGTCACCTAGTGCAG	28700 fluorescence intensity (a.u.)
CTTAGTCCCACTTCAGGTGTCACATCATTTAAACGTGAGGCGGAGTCACCTAGTGCAG	4320 fluorescence intensity (a.u.)
TAGCTGCGGTGCGCGCCTATTCTTGGCGCCATAATGAAGCCGGAGTCACCTAGTGCAG	3510 fluorescence intensity (a.u.)
GTTTTGACCCGGTTTTGGTCTACGTGGCGCTGAGTCAGCGCGGAGTCACCTAGTGCAG	29900 fluorescence intensity (a.u.)
GCGCTGCCACCCCGGCGCCCACGGAGGTCGACGCCAGCCACGGAGTCACCTAGTGCAG	3210 fluorescence intensity (a.u.)
CAGCAAGAGCAAACCTGTCGCGTCCCCATTCCAAGCCCGCCGGAGTCACCTAGTGCAG	3160 fluorescence intensity (a.u.)
AATGAAAGATTTCCTTTCAATGACCTCGTCAGTTAATTTTCGGAGTCACCTAGTGCAG	3650 fluorescence intensity (a.u.)
TGCTACAGCTACAATGTGGCGTCACTATGGGTATACACATCGGAGTCACCTAGTGCAG	23800 fluorescence intensity (a.u.)
AAACAAGACATACACATACTTATTGTGTTTTGTCACGTCACGGAGTCACCTAGTGCAG	6450 fluorescence intensity (a.u.)
GGGATCTGTAATGTTGGTATACGACACAGCTTGCAGAAAACGGAGTCACCTAGTGCAG	4840 fluorescence intensity (a.u.)
CAATCCTCTTTGGGAGGATATGGCTTTTGAGTTTGTGAATCGGAGTCACCTAGTGCAG	3290 fluorescence intensity (a.u.)
CATGTAGAACCCACATGAGTCAATCACATGTGGGTCAGGACGGAGTCACCTAGTGCAG	3990 fluorescence intensity (a.u.)
ACTGGCTTCAATTTATCTATAGCTAATCTAATAGCTAATTCGGAGTCACCTAGTGCAG	33900 fluorescence intensity (a.u.)
ACCGTTTTGGGATGCCATGACCGACACACTAACAACCGCTCGGAGTCACCTAGTGCAG	3190 fluorescence intensity (a.u.)
GCATGGCCCATCGTACTTGGCTTTGCCACCTTTCGGTGTGCGGAGTCACCTAGTGCAG	3300 fluorescence intensity (a.u.)
TAAAATTATTATATTTTATAAGAAAGGTAACAAGTAAACACGGAGTCACCTAGTGCAG	28600 fluorescence intensity (a.u.)

3 consecutive entries out of the list so far, for reference:
Sequence	binding signal
ATTGTCTTTCCTGTACAACATGTCACCAGCATAAATGGTCCGGAGTCACCTAGTGCAG	4780 fluorescence intensity (a.u.)
ACCTGTTCGATGTGCTTGACCGTTTCAACGCCTAGGCCCACGGAGTCACCTAGTGCAG	33800 fluorescence intensity (a.u.)
TGATTCAGAAGCTTTCCTTGCCAATGTGTCAGCCTTGTCGCGGAGTCACCTAGTGCAG	6780 fluorescence intensity (a.u.)
